Measured values from the supplement of paper PMC10849652.
This is one part of the list.

Amino acid sequences for entries named in this document (tags omitted). A change or cut given only in a name is not applied to a line headed by its entry.
UniProt P0CG48, whole entry, looked up: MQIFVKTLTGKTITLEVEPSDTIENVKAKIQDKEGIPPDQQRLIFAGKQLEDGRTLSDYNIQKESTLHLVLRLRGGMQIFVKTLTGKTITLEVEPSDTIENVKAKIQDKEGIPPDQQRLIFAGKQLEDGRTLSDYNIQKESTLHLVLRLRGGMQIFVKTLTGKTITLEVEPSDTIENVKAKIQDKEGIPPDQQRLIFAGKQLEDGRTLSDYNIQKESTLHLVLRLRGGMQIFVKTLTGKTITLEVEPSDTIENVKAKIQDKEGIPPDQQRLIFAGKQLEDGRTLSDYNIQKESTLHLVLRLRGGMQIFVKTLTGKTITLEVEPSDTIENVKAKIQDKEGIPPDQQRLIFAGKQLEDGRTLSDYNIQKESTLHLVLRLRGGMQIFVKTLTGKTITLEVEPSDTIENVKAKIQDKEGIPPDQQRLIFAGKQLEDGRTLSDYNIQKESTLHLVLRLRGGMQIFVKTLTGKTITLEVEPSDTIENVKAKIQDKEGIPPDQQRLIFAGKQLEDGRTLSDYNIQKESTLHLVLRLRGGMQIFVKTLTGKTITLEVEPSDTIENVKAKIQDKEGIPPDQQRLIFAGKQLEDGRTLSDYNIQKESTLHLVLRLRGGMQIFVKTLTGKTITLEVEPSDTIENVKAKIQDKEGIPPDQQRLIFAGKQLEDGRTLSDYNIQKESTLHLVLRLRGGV
UniProt Q9BSL1: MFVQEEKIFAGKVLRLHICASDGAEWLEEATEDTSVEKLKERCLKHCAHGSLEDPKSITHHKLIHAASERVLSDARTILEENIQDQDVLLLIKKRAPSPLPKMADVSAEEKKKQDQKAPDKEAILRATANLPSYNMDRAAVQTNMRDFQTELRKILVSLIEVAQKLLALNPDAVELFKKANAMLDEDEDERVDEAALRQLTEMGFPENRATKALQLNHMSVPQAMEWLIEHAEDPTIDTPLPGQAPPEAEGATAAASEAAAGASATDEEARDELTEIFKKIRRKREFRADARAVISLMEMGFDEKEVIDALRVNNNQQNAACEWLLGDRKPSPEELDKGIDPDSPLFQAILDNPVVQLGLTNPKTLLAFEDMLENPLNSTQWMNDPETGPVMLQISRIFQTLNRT
UniProt P68366, whole entry, looked up: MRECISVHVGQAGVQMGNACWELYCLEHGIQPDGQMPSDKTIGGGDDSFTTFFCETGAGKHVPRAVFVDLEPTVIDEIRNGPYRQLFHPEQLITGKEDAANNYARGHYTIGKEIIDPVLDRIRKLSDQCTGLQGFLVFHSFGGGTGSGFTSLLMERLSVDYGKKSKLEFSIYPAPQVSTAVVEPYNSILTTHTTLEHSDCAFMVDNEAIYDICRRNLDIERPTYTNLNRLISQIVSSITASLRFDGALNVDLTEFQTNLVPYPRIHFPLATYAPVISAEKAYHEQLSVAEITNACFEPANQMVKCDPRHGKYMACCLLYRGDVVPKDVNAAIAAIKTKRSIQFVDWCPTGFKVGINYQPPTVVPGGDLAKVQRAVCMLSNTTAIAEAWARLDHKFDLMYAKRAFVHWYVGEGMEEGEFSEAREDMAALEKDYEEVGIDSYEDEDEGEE
UniProt Q13509, whole entry, looked up: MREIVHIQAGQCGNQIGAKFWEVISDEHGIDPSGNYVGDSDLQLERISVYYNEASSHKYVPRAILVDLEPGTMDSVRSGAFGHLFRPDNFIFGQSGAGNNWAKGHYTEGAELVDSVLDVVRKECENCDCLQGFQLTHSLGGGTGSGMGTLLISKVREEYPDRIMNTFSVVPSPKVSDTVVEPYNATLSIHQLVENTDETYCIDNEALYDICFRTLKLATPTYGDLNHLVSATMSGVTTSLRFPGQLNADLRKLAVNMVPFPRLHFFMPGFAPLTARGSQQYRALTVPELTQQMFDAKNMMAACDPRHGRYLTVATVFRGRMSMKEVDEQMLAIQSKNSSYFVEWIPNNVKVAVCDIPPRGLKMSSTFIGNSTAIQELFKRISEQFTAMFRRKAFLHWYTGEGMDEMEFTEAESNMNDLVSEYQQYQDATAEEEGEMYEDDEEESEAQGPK
UniProt Q9NX01: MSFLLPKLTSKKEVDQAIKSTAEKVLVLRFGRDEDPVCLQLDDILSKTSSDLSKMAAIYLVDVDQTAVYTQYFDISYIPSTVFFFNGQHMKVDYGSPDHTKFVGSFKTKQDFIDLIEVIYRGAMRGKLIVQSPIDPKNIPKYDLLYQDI
UniProt Q9H6E5: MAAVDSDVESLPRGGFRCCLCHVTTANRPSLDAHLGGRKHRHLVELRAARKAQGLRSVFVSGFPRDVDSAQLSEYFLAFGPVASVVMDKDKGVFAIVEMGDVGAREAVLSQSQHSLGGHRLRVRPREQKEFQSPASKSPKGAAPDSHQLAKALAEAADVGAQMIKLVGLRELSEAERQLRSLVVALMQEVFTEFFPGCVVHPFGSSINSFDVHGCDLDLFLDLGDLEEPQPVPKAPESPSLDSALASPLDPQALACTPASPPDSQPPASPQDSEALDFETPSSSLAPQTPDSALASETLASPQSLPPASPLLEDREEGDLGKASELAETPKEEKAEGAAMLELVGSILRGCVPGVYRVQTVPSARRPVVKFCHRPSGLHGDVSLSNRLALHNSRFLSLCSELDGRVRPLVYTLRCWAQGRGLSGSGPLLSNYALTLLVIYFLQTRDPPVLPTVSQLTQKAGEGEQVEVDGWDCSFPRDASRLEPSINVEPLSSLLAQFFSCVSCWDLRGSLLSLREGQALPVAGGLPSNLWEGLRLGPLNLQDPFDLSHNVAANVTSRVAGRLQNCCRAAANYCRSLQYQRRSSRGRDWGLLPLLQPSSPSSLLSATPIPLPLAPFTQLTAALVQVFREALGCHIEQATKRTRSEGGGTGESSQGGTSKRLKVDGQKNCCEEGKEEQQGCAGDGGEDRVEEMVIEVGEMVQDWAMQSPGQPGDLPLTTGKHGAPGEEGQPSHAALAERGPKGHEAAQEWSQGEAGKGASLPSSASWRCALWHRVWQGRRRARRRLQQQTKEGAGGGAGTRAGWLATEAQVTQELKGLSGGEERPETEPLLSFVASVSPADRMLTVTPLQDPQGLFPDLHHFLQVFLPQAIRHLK
UniProt Q96LJ8: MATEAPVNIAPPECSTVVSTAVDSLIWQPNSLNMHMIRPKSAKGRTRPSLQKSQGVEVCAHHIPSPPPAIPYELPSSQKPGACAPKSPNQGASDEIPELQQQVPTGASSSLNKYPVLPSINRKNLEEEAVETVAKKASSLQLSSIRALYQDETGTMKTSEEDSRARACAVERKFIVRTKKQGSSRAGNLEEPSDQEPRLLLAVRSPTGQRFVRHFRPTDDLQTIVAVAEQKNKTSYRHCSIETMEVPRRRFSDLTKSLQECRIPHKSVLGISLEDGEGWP
UniProt P51965: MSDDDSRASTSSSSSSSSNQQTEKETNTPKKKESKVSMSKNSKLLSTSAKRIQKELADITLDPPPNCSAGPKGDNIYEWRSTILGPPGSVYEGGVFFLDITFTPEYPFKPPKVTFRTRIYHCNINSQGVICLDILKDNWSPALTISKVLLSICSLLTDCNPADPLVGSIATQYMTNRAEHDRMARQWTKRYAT
UniProt Q9C0C9: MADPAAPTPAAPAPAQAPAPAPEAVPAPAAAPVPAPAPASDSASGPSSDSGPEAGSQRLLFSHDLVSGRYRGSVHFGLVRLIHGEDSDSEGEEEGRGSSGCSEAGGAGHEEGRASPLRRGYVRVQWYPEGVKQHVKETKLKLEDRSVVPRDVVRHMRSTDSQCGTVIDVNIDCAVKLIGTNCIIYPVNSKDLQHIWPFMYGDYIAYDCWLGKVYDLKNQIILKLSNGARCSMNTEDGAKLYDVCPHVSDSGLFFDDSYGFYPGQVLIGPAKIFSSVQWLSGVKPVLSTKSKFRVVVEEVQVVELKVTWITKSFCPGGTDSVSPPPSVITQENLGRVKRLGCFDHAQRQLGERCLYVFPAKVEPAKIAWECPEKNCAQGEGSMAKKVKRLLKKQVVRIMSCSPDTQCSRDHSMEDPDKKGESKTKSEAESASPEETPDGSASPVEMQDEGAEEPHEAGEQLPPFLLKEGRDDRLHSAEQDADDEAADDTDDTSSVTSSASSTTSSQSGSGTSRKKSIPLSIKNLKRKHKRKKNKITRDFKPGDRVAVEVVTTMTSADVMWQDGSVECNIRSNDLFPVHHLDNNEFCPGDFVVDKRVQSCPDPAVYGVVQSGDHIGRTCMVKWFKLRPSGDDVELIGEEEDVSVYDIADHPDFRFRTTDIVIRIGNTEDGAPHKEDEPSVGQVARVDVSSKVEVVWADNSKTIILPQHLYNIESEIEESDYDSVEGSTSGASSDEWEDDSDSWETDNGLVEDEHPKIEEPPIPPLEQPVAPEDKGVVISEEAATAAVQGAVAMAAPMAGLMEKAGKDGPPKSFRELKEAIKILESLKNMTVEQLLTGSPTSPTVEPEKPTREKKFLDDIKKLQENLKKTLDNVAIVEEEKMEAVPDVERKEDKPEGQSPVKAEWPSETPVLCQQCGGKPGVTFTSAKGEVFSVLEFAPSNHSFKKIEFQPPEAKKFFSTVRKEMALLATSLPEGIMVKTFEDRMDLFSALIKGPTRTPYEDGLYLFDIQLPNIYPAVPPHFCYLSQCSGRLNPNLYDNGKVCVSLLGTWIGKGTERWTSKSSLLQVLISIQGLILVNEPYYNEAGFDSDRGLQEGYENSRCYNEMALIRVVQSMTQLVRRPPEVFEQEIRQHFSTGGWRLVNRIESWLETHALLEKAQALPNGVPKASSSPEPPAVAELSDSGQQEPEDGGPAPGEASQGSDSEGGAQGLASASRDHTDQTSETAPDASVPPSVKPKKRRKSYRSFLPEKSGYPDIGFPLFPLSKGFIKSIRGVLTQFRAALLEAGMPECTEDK
UniProt O94888: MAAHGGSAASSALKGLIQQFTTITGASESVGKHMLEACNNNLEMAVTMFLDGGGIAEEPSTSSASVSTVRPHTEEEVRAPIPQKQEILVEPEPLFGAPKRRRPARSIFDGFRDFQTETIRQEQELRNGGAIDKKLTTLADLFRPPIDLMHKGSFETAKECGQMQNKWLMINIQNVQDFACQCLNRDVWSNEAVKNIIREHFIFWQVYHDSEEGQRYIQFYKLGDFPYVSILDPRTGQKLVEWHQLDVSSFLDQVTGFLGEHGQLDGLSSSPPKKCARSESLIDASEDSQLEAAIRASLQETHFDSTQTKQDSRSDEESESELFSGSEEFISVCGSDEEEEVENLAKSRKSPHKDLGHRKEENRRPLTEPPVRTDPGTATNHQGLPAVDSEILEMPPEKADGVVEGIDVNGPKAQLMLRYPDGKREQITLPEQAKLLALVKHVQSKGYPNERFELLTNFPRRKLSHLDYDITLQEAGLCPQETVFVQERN
UniProt Q8NBM4: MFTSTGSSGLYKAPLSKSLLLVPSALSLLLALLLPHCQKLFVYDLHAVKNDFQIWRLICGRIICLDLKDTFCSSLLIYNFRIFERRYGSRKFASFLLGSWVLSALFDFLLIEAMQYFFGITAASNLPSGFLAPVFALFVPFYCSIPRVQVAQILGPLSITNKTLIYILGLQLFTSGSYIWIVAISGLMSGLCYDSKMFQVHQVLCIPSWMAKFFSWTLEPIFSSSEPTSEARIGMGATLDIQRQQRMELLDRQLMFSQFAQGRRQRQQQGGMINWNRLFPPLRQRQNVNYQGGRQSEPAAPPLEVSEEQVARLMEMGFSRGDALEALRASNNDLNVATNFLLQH
UniProt Q9BTX7: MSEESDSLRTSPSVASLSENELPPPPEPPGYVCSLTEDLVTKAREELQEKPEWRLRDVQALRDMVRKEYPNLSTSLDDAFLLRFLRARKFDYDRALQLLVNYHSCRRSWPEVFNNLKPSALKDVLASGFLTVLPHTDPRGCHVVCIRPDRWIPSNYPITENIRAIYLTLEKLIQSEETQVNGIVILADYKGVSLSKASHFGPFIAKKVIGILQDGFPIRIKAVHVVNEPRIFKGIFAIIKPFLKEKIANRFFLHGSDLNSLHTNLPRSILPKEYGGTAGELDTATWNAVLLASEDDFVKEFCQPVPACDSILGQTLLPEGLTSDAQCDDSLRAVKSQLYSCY
UniProt P07437, whole entry, looked up: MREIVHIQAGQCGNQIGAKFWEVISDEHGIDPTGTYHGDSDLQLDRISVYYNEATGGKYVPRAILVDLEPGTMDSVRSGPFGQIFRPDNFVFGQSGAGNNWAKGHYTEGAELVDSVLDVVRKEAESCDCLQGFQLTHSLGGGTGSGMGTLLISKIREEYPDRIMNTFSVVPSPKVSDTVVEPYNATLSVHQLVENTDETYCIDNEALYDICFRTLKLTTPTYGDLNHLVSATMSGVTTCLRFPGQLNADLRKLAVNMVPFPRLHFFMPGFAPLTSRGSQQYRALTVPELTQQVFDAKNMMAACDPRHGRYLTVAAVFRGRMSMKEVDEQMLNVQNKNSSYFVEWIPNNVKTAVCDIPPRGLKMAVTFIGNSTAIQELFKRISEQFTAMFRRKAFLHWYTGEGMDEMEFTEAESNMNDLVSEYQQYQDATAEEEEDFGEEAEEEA
UniProt Q99757: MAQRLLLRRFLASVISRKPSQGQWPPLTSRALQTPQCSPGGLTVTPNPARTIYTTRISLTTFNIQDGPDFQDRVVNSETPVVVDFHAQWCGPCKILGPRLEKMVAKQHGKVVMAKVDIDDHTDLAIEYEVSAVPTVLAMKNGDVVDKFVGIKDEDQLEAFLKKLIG

What was measured:
Test in all cases: log2 fold change, soluble protein after heating vs DMSO (PISA); higher = thermal stabilisation; K562 lysate, 10 uM; active = over 0.2 and 3.5 SD of the protein, either way, in both replicates (recomputed)
alvocidib = compound: CN1CC[C@H](c2c(O)cc(O)c3c(=O)cc(-c4ccccc4Cl)oc23)[C@H](O)C1 [alvocidib]
Procedure, shortened: (§1)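 Quantification was by TMTpro 16plex LC-MS/MS with equalised channel sums, applied to the supernatant after 21,000xg for 90 min. Samples were crude K562 extract at 1 mg/mL protein in PBS pH 7.4 with 1 mM MgCl2, treated with 10 μM compound for 30 min, heated for 3 min across 48°C-58°C, pooled and brought to 0.5% NP-40 at 4°C. Values are log-two fold changes in thermal stability relative to solvent controls, from duplicates.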

Tubastatin A = compound: CN1CCc2c(c3ccccc3n2Cc2ccc(C(=O)NO)cc2)C1 [Tubastatin A]
Procedure, shortened: as §1

[1] = compound: CNC(=O)C1=CC=CC=C1NC2=NC(=NC=C2Cl)NC3=C(C=C(C=C3)N4CCOCC4)OC
Procedure, shortened: as §1

defactinib = compound: CNC(=O)c1ccc(Nc2ncc(C(F)(F)F)c(NCc3nccnc3N(C)S(C)(=O)=O)n2)cc1 [defactinib]
Procedure, shortened: as §1

[2] = compound: CNc1nc(-c2ccc3c(N)n[nH]c3c2)cc(N2C[C@@H](C(=O)NC3CCCCC3)CC[C@H]2C)n1
Procedure, shortened: as §1

encorafenib = compound: COC(=O)N[C@@H](C)CNc1nccc(-c2cn(C(C)C)nc2-c2cc(Cl)cc(NS(C)(=O)=O)c2F)n1 [encorafenib]
Procedure, shortened: as §1

[3] = compound: COC(=O)[C@H](CCSC)NC(=O)C1=C(C=C(C=C1)NC[C@H](CS)N)C2=CC=CC=C2
Procedure, shortened: as §1

alisertib = compound: COc1cc(Nc2ncc3c(n2)-c2ccc(Cl)cc2C(c2c(F)cccc2OC)=NC3)ccc1C(=O)O [alisertib]
Procedure, shortened: as §1

[4] = compound: COc1cc2nc(-c3cc(F)ccc3O)nc(N[C@@H]3CNC[C@H]3C(C)(C)O)c2cc1OC
Procedure, shortened: as §1

gefitinib = compound: COc1cc2ncnc(Nc3ccc(F)c(Cl)c3)c2cc1OCCCN1CCOCC1 [gefitinib]
Procedure, shortened: as §1

Measured: log2 fold change

UBC (UniProt P0CG48)
inactive: alvocidib 0.178 | Tubastatin A 0.038 | [1] 0.002 | defactinib 0.021 | [2] 0.038 | encorafenib -0.012 | [3] -0.05 | alisertib -0.03 | [4] -0.014 | gefitinib -0.092

UBL4A (UniProt P11441)
inactive: alvocidib 0.016 | Tubastatin A -0.039 | [1] -0.015 | defactinib 0.006 | [2] -0.008 | encorafenib 0.046 | [3] -0.043 | alisertib 0.018 | [4] -0.059 | gefitinib -0.033

UBAC1 (UniProt Q9BSL1)
inactive: alvocidib 0.047 | Tubastatin A 0.019 | [1] -0.004 | defactinib -0.001 | [2] 0.023 | encorafenib -0.005 | [3] -0.034 | alisertib -0.016 | [4] -0.006 | gefitinib 0.013

TXNL1 (UniProt O43396)
inactive: alvocidib 0.019 | Tubastatin A 0.032 | [1] -0.014 | defactinib 0.014 | [2] 0.014 | encorafenib 0.004 | [3] 0.013 | alisertib 0 | [4] 0.002 | gefitinib 0.012

TUBA4A (UniProt P68366)
inactive: alvocidib 0.003 | Tubastatin A -0.068 | [1] 0.049 | defactinib 0.014 | [2] -0.001 | encorafenib -0.039 | [3] 0.125 | alisertib 0.027 | [4] 0.032 | gefitinib 0.007

Fetched one by one from the entries so far, 3 records:
TUBA4A (UniProt P68366)
inactive: alvocidib 0.003 | Tubastatin A -0.068 | [1] 0.049 | defactinib 0.014 | [2] -0.001 | encorafenib -0.039 | [3] 0.125 | alisertib 0.027 | [4] 0.032 | gefitinib 0.007

TXNL1 (UniProt O43396)
inactive: alvocidib 0.019 | Tubastatin A 0.032 | [1] -0.014 | defactinib 0.014 | [2] 0.014 | encorafenib 0.004 | [3] 0.013 | alisertib 0 | [4] 0.002 | gefitinib 0.012

UBC (UniProt P0CG48)
inactive: alvocidib 0.178 | Tubastatin A 0.038 | [1] 0.002 | defactinib 0.021 | [2] 0.038 | encorafenib -0.012 | [3] -0.05 | alisertib -0.03 | [4] -0.014 | gefitinib -0.092

Remaining list, next part

UBE2H (UniProt P62256)
inactive: alvocidib 0.11 | Tubastatin A 0.076 | [1] -0.03 | defactinib 0.025 | [2] -0.061 | encorafenib 0.001 | [3] -0.01 | alisertib 0.004 | [4] -0.029 | gefitinib 0.044

UBE2N (UniProt P61088)
inactive: alvocidib 0.015 | Tubastatin A 0.022 | [1] 0.002 | defactinib 0.028 | [2] 0.033 | encorafenib 0.02 | [3] -0.017 | alisertib 0.017 | [4] -0.003 | gefitinib -0.025

UBQLN1 (UniProt Q9UMX0)
inactive: alvocidib 0.06 | Tubastatin A 0.01 | [1] -0.011 | defactinib 0.099 | [2] 0.013 | encorafenib 0.102 | [3] -0.027 | alisertib -0.068 | [4] 0.005 | gefitinib -0.027

UBXN8 (UniProt O00124)
inactive: alvocidib -0.039 | Tubastatin A -0.037 | [1] 0.025 | [2] 0.103 | encorafenib -0.144 | [3] -0.076 | alisertib 0.045 | gefitinib -0.053

TUBB3 (UniProt Q13509)
inactive: alvocidib -0.001 | Tubastatin A -0.081 | [1] 0.006 | defactinib 0.023 | [2] -0.034 | encorafenib -0.004 | [3] 0.072 | alisertib 0.007 | [4] 0.007 | gefitinib -0.016

UBL5 (UniProt Q9BZL1)
inactive: alvocidib -0.117 | Tubastatin A 0.023 | [1] -0.048 | defactinib 0.041 | [2] -0.045 | encorafenib -0.012 | [3] -0.06 | alisertib 0.039 | gefitinib -0.141

TXNIP (UniProt Q9H3M7)
inactive: alvocidib 0.017 | Tubastatin A -0.021 | [1] 0.037 | defactinib 0.042 | [2] 0.046 | encorafenib 0.011 | [3] 0.067 | alisertib -0.015 | gefitinib -0.004

TXNL4B (UniProt Q9NX01)
inactive: alvocidib 0.03 | Tubastatin A 0.067 | [1] -0.049 | defactinib 0.005 | [2] -0.033 | encorafenib 0.074 | [3] 0.017 | alisertib 0 | [4] -0.056 | gefitinib 0.31

U2AF2 (UniProt P26368)
inactive: alvocidib -0.188 | Tubastatin A 0.044 | [1] -0.063 | defactinib -0.093 | [2] -0.01 | encorafenib -0.002 | [3] -0.054 | alisertib 0.006 | [4] -0.027 | gefitinib -0.034

UBE2J2 (UniProt Q8N2K1)
inactive: alvocidib 0.177 | Tubastatin A -0.119 | [1] -0.055 | defactinib -0.076 | [2] 0.157 | encorafenib 0.083 | [3] -0.181 | alisertib 0.087 | gefitinib -0.072

TUT1 (UniProt Q9H6E5)
inactive: alvocidib 0 | Tubastatin A -0.015 | [1] 0.016 | defactinib 0.07 | [2] -0.015 | encorafenib 0.001 | [3] 0.204 | alisertib 0.024 | [4] -0.048 | gefitinib -0.001

TWISTNB (UniProt Q3B726)
inactive: alvocidib 0.042 | Tubastatin A -0.035 | [1] 0.002 | defactinib -0.021 | [2] 0.028 | encorafenib 0.067 | [3] 0.053 | alisertib -0.001 | [4] 0.023 | gefitinib 0.042

UCHL5 (UniProt Q5LJA9)
inactive: alvocidib 0.049 | Tubastatin A -0.153 | [1] 0.005 | defactinib 0.015 | [2] -0.156 | encorafenib 0.007 | [3] 0.091 | [4] -0.011

U2AF1L5 (UniProt P0DN76)
inactive: alvocidib -0.58 | Tubastatin A -0.193 | [1] -0.044 | [2] -0.023 | encorafenib -0.101 | [3] 0.096 | alisertib -0.045 | [4] -0.013 | gefitinib -0.061

UBA6
inactive: alvocidib 0.003 | Tubastatin A -0.081 | [1] 0.015 | defactinib 0.024 | [2] -0.021 | encorafenib 0.003 | [3] 0.053 | alisertib 0.002 | [4] 0.01 | gefitinib -0.005

UBXN10 (UniProt Q96LJ8)
inactive: alvocidib -0.036 | Tubastatin A -0.02 | [1] 0.051 | defactinib 0.026 | [2] 0.019 | encorafenib 0.045 | [3] -0.116 | [4] -0.006

UBOX5 (UniProt O94941)
inactive: alvocidib 0.044 | Tubastatin A -0.021 | [1] 0.031 | [2] -0.116 | alisertib -0.064 | gefitinib -0.077

TUBB4A (UniProt P04350)
inactive: alvocidib -0.006 | Tubastatin A -0.113 | [1] -0.029 | [2] 0.051 | encorafenib -0.027 | [3] 0.112 | alisertib 0.021 | [4] -0.002 | gefitinib 0.101

UBE2E1 (UniProt P51965)
inactive: alvocidib 0.046 | Tubastatin A -0.07 | [1] 0.018 | defactinib 0.057 | [2] 0.312 | encorafenib -0.03 | [3] -0.022 | alisertib -0.032 | [4] -0.106 | gefitinib -0.087

UBE2O (UniProt Q9C0C9)
inactive: alvocidib -0.048 | Tubastatin A 0.016 | [1] 0.019 | defactinib -0.006 | [2] 0.131 | encorafenib -0.009 | [3] 0.012 | alisertib -0.03 | [4] 0.006 | gefitinib -0.003

TUFT1 (UniProt Q9NNX1)
inactive: alvocidib -0.082 | Tubastatin A -0.024 | [1] -0.001 | encorafenib 0 | [3] 0.075 | alisertib -0.067 | gefitinib 0.181

TWNK (UniProt Q96RR1)
inactive: alvocidib -0.012 | Tubastatin A 0.344 | [1] -0.063 | defactinib -0.076 | [2] 0.351 | encorafenib -0.032 | [3] 0.041 | alisertib 0.01 | gefitinib -0.043

TUBGCP2 isoform 4 (UniProt Q9BSJ2)
inactive: alvocidib -0.007 | Tubastatin A -0.008 | [1] 0.053 | defactinib 0.032 | [2] 0.003 | encorafenib 0.045 | [3] -0.026 | alisertib 0.021 | [4] 0.017 | gefitinib -0.018

UBXN7 (UniProt O94888)
inactive: alvocidib -0.006 | Tubastatin A 0.006 | [1] 0.021 | defactinib 0.001 | [2] 0 | encorafenib 0.014 | [3] -0.105 | alisertib -0.016 | [4] 0.007 | gefitinib -0.017

UBE4B isoform 4 (UniProt O95155)
inactive: alvocidib 0.004 | Tubastatin A -0.006 | [1] 0.003 | defactinib 0.017 | [2] -0.035 | encorafenib 0.028 | [3] -0.037 | alisertib -0.011 | [4] -0.001 | gefitinib 0

UBAC2 (UniProt Q8NBM4)
inactive: alvocidib -0.081 | Tubastatin A 0.046 | [1] 0.037 | defactinib 0.04 | [2] -0.116 | encorafenib 0.112 | [3] -0.061 | [4] 0.226

UBXN2A (UniProt P68543)
inactive: alvocidib 0.083 | Tubastatin A -0.107 | [1] -0.032 | defactinib 0.019 | [2] 0.095 | [4] 0

TTPAL (UniProt Q9BTX7)
inactive: alvocidib -0.058 | Tubastatin A 0.05 | [1] -0.074 | defactinib 0.172 | [2] 0.013 | encorafenib -0.024 | [3] -0.096 | alisertib -0.092 | [4] 0.017 | gefitinib -0.032

TXNDC11 (UniProt Q6PKC3)
inactive: alvocidib -0.057 | Tubastatin A -0.036 | [1] 0.052 | [2] -0.06 | encorafenib 0.071 | [3] 0.042 | alisertib -0.089 | [4] 0.049 | gefitinib -0.061

TUBB (UniProt P07437)
inactive: alvocidib 0.01 | Tubastatin A -0.035 | [1] -0.001 | defactinib 0.007 | [2] 0.007 | encorafenib -0.013 | [3] 0.081 | alisertib 0.014 | [4] -0.012 | gefitinib -0.031

TUBB6 (UniProt K7ES63)
inactive: alvocidib -0.11 | Tubastatin A -0.021 | [1] 0.111 | defactinib -0.018 | encorafenib 0.024 | [3] 0.125 | alisertib 0.055 | [4] -0.051 | gefitinib 0.165

UBR7 (UniProt Q8N806)
inactive: alvocidib 0.059 | Tubastatin A 0.002 | [1] -0.02 | defactinib 0.041 | [2] -0.015 | encorafenib 0.008 | [3] -0.02 | alisertib -0.057 | [4] 0.023 | gefitinib 0.013

TXN2 (UniProt Q99757)
inactive: alvocidib -0.019 | Tubastatin A 0.079 | [1] 0.027 | defactinib 0.034 | [2] 0.047 | encorafenib -0.063 | [3] -0.15 | alisertib -0.026 | [4] -0.024 | gefitinib -0.037

TXNDC16 (UniProt Q9P2K2)
inactive: alvocidib -0.017 | Tubastatin A -0.08 | [1] 0.164 | defactinib -0.038 | [2] -0.086 | [4] -0.062

TUSC2 (UniProt O75896)
inactive: alvocidib -0.089 | Tubastatin A 0.049 | [1] 0.008 | [2] -0.073 | encorafenib -0.148 | [3] -0.008 | alisertib -0.033 | [4] 0.133 | gefitinib 0.03

TUBB4A (UniProt M0QYM7)
inactive: alvocidib -0.158 | Tubastatin A -0.007 | [1] -0.109 | defactinib -0.115 | encorafenib 0.009 | [3] 0.053 | alisertib -0.025 | [4] 0.042 | gefitinib -0.076

UBE2Q1 (UniProt Q7Z7E8)
inactive: alvocidib -0.021 | Tubastatin A -0.013 | [1] 0.039 | defactinib -0.01 | [2] 0.02 | encorafenib 0.013 | [3] -0.039 | alisertib -0.018 | [4] 0.017 | gefitinib 0.023
